Experimental data: PubChem BioAssay AID1508597 (Cure First, 2020)

Purpose: 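Survival screen with siRNA in ovarian cancer cells derived from patients, with or without rucaparib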 (primary screen)
System: human ovarian carcinoma lines grown from tumours: OCI-P5x (papillary serous) and OCI-C5x (clear cell)
Reagents: siRNA pool against human genes, 1.25 pmol siRNA per well
Time to read-out: 72 h or 96 h, depending on the cell culture
Conditions: rucaparib 20 µM (about IC30) or vehicle, present until read-out
Measured: 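ATP luminescence measured at 72 or 96 h according to the culture, then normalised and expressed as percent viability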
Reading the numbers: viability, normalised: higher = more viable cells remaining
Rule for the call: 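a well counts as a hit if its normalised viability is under 80 percent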
Calls: active = viability under 80%; inactive = viability 80% or more
Here is an unselected part of about 2,100 reagents tested. 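Calls flag viability under 80% in either arm, not effects specific to rucaparib; the reference for percent is not stated.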 Entries without a mark were called inactive. Reagent sequences are not shown. Not given: the 100% reference.

What did the screen give for RRP8, rucaparib or vehicle Rucaparib, cell line OCI-C5x (clear cell), technical replicate 1?
viability, normalised (%): 49 (active)

With RRP8, rucaparib or vehicle Rucaparib, cell line OCI-C5x (clear cell), technical replicate 2, how do the results read?
viability, normalised (%): 52.3 (active)

What is on record for RRP8, rucaparib or vehicle Rucaparib, cell line OCI-C5x (clear cell), technical replicate 3?
viability, normalised (%): 48.3 (active)

How did the screen score RRP8, rucaparib or vehicle Rucaparib, cell line OCI-P5x (serous), technical replicate 1?
viability, normalised (%): 44.3 (active)

For RRP8, rucaparib or vehicle Rucaparib, cell line OCI-P5x (serous), technical replicate 2, what does the deposit list?
viability, normalised (%): 35 (active)

For RRP8, rucaparib or vehicle Rucaparib, cell line OCI-P5x (serous), technical replicate 3, what does the deposit list?
viability, normalised (%): 42.3 (active)

With RRP8, rucaparib or vehicle Vehicle, cell line OCI-C5x (clear cell), technical replicate 1, what does the deposit list?
viability, normalised (%): 33.8 (active)

What did the screen give for RRP8, rucaparib or vehicle Vehicle, cell line OCI-C5x (clear cell), technical replicate 2?
viability, normalised (%): 40.1 (active)

How did the screen score RRP8, rucaparib or vehicle Vehicle, cell line OCI-C5x (clear cell), technical replicate 3?
viability, normalised (%): 35.7 (active)

With RRP8, rucaparib or vehicle Vehicle, cell line OCI-P5x (serous), technical replicate 1, what was measured?
viability, normalised (%): 36.7 (active)

Which result is listed for RRP8, rucaparib or vehicle Vehicle, cell line OCI-P5x (serous), technical replicate 2?
viability, normalised (%): 40.7 (active)

For RRP8, rucaparib or vehicle Vehicle, cell line OCI-P5x (serous), technical replicate 3, how do the results read?
viability, normalised (%): 76.7 (active)

5 entries from above, arranged by “viability, normalised (%)”, descending.
RRP8, rucaparib or vehicle Rucaparib, cell line OCI-P5x (serous), technical replicate 1 — viability, normalised (%) = 44.3 (active)
RRP8, rucaparib or vehicle Rucaparib, cell line OCI-P5x (serous), technical replicate 3 — viability, normalised (%) = 42.3 (active)
RRP8, rucaparib or vehicle Vehicle, cell line OCI-C5x (clear cell), technical replicate 2 — viability, normalised (%) = 40.1 (active)
RRP8, rucaparib or vehicle Rucaparib, cell line OCI-P5x (serous), technical replicate 2 — viability, normalised (%) = 35 (active)
RRP8, rucaparib or vehicle Vehicle, cell line OCI-C5x (clear cell), technical replicate 1 — viability, normalised (%) = 33.8 (active)

Next records follow:
Which result is listed for GUCY2C, rucaparib or vehicle Rucaparib, cell line OCI-C5x (clear cell), technical replicate 1?
viability, normalised (%): 66 (active)

For GUCY2C, rucaparib or vehicle Rucaparib, cell line OCI-C5x (clear cell), technical replicate 2, what was measured?
viability, normalised (%): 61.1 (active)

Which result is listed for GUCY2C, rucaparib or vehicle Rucaparib, cell line OCI-C5x (clear cell), technical replicate 3?
viability, normalised (%): 52.5 (active)

For GUCY2C, rucaparib or vehicle Rucaparib, cell line OCI-P5x (serous), technical replicate 1, how do the results read?
viability, normalised (%): 77.1 (active)

For GUCY2C, rucaparib or vehicle Rucaparib, cell line OCI-P5x (serous), technical replicate 2, what does the deposit list?
viability, normalised (%): 65.4 (active)

Which result is listed for GUCY2C, rucaparib or vehicle Rucaparib, cell line OCI-P5x (serous), technical replicate 3?
viability, normalised (%): 70.4 (active)

With GUCY2C, rucaparib or vehicle Vehicle, cell line OCI-C5x (clear cell), technical replicate 1, how do the results read?
viability, normalised (%): 52.1 (active)

What did the screen give for GUCY2C, rucaparib or vehicle Vehicle, cell line OCI-C5x (clear cell), technical replicate 2?
viability, normalised (%): 46.2 (active)

What is on record for GUCY2C, rucaparib or vehicle Vehicle, cell line OCI-C5x (clear cell), technical replicate 3?
viability, normalised (%): 75.8 (active)

With GUCY2C, rucaparib or vehicle Vehicle, cell line OCI-P5x (serous), technical replicate 1, what does the deposit list?
viability, normalised (%): 60.5 (active)

With GUCY2C, rucaparib or vehicle Vehicle, cell line OCI-P5x (serous), technical replicate 2, what was measured?
viability, normalised (%): 69.7 (active)

What did the screen give for GUCY2C, rucaparib or vehicle Vehicle, cell line OCI-P5x (serous), technical replicate 3?
viability, normalised (%): 65.9 (active)

For MED15, rucaparib or vehicle Rucaparib, cell line OCI-C5x (clear cell), technical replicate 1, how do the results read?
viability, normalised (%): 48.5 (active)

For MED15, rucaparib or vehicle Rucaparib, cell line OCI-C5x (clear cell), technical replicate 2, what was measured?
viability, normalised (%): 58.2 (active)

For MED15, rucaparib or vehicle Rucaparib, cell line OCI-C5x (clear cell), technical replicate 3, what was measured?
viability, normalised (%): 50.4 (active)

Which result is listed for MED15, rucaparib or vehicle Rucaparib, cell line OCI-P5x (serous), technical replicate 1?
viability, normalised (%): 55.4 (active)

With MED15, rucaparib or vehicle Rucaparib, cell line OCI-P5x (serous), technical replicate 2, what does the deposit list?
viability, normalised (%): 70.2 (active)

What is on record for MED15, rucaparib or vehicle Rucaparib, cell line OCI-P5x (serous), technical replicate 3?
viability, normalised (%): 63 (active)

For MED15, rucaparib or vehicle Vehicle, cell line OCI-C5x (clear cell), technical replicate 1, how do the results read?
viability, normalised (%): 48.2 (active)

What did the screen give for MED15, rucaparib or vehicle Vehicle, cell line OCI-C5x (clear cell), technical replicate 2?
viability, normalised (%): 57.2 (active)

What is on record for MED15, rucaparib or vehicle Vehicle, cell line OCI-C5x (clear cell), technical replicate 3?
viability, normalised (%): 57.5 (active)

How did the screen score MED15, rucaparib or vehicle Vehicle, cell line OCI-P5x (serous), technical replicate 1?
viability, normalised (%): 78.5 (active)

For MED15, rucaparib or vehicle Vehicle, cell line OCI-P5x (serous), technical replicate 2, how do the results read?
viability, normalised (%): 60.9 (active)

How did the screen score MED15, rucaparib or vehicle Vehicle, cell line OCI-P5x (serous), technical replicate 3?
viability, normalised (%): 88
